Assay results: the supplement of paper PMC12819154, “High-throughput peptide-centric local stability assay extends protein–ligand identification to membrane proteins, tissues and bacteria” (Nature Structural & Molecular Biology, 2025)
This is one part of the list. Small differences around the control level are noise.

Protein sequences, listed by entry. Tags and fused reporters are not part of them. Lines headed by an entry give the natural chain unless they say otherwise; changes in a name come on top.
UniProt P09394: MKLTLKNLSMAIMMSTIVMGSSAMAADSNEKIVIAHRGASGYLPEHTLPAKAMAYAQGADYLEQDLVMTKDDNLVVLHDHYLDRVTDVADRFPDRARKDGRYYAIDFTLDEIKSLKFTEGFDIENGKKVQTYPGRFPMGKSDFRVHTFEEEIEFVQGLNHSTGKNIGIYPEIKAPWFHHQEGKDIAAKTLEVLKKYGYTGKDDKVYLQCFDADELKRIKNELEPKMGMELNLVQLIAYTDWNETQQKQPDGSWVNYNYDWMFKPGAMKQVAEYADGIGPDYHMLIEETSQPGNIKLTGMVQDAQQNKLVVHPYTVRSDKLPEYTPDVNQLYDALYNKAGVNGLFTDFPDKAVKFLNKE
UniProt P07024: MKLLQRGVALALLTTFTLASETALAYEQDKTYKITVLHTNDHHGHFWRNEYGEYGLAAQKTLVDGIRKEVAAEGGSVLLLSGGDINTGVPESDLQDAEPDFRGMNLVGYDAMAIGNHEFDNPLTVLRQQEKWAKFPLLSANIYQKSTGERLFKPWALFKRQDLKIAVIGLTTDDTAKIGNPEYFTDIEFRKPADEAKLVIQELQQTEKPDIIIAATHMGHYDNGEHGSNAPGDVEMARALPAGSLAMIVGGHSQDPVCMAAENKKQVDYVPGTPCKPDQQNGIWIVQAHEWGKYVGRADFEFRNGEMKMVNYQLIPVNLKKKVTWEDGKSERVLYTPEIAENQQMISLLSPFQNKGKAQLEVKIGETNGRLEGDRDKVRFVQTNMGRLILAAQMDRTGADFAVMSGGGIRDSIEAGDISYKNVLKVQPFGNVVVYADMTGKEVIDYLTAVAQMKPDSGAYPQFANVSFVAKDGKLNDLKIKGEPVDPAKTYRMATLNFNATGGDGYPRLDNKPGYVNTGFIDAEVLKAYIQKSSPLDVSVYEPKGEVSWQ
UniProt P08506: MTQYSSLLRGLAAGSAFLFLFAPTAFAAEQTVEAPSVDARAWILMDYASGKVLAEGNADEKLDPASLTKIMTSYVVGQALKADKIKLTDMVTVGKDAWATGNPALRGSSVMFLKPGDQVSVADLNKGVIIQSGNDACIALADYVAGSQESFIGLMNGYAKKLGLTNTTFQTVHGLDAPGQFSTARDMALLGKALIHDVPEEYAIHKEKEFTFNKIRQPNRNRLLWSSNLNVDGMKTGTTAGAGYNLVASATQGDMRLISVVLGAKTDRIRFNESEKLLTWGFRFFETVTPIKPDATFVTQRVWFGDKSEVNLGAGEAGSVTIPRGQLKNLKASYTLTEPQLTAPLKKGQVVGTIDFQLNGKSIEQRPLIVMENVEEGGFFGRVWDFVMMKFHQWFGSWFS
UniProt P06612: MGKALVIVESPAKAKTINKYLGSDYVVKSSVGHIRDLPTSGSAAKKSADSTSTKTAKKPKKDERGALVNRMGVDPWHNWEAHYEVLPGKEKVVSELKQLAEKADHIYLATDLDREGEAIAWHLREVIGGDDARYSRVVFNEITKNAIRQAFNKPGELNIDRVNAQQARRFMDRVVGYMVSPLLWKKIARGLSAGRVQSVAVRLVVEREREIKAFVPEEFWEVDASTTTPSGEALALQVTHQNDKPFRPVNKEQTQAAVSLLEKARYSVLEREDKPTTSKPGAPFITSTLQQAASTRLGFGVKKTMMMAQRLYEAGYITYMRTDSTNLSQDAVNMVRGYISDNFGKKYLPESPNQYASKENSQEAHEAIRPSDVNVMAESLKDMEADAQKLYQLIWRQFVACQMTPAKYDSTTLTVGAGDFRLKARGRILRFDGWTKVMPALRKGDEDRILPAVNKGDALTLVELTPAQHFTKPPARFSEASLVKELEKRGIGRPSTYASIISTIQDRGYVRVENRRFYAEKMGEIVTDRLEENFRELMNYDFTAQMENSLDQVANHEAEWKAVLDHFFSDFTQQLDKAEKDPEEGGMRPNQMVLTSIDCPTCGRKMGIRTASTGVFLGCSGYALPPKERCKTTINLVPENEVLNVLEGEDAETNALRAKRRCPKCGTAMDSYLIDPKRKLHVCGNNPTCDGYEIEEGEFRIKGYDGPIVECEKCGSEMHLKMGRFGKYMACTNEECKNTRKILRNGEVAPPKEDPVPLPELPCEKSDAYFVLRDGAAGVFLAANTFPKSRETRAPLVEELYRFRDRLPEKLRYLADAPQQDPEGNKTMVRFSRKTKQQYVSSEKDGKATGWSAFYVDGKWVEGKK
UniProt P00561: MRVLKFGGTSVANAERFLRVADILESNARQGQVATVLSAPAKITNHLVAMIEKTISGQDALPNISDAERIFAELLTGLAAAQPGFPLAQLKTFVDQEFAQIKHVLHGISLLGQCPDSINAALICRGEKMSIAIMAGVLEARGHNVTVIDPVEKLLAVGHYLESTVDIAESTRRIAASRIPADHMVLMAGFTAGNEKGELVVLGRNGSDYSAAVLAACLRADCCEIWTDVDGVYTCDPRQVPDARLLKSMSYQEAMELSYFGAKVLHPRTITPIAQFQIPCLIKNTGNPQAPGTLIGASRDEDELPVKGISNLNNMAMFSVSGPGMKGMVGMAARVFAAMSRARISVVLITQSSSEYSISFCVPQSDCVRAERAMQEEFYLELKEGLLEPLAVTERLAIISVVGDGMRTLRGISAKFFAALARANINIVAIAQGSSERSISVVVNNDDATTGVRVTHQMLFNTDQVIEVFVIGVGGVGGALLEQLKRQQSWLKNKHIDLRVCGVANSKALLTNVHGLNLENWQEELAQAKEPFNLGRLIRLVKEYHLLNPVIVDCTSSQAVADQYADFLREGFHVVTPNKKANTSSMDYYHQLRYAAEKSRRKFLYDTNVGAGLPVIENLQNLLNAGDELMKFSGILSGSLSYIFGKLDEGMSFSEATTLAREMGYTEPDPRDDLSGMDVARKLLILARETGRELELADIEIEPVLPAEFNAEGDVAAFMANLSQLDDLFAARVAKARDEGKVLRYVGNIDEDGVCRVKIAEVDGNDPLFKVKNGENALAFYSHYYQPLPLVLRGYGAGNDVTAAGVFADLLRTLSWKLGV
UniProt P00893: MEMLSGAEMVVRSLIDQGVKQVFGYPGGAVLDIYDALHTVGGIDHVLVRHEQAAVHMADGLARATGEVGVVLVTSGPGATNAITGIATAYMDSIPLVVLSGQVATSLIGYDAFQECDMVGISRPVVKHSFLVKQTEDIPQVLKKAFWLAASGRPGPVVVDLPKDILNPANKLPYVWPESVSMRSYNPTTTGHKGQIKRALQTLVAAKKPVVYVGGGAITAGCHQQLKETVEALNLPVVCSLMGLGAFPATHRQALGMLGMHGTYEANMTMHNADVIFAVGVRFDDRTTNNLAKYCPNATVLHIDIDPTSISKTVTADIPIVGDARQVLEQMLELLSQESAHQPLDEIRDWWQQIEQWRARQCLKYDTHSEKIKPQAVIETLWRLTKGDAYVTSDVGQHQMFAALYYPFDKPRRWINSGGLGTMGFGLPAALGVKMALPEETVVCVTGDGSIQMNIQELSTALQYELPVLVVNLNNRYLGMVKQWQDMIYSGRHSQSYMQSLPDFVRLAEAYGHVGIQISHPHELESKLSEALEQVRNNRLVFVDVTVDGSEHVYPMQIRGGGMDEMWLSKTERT
UniProt P00904: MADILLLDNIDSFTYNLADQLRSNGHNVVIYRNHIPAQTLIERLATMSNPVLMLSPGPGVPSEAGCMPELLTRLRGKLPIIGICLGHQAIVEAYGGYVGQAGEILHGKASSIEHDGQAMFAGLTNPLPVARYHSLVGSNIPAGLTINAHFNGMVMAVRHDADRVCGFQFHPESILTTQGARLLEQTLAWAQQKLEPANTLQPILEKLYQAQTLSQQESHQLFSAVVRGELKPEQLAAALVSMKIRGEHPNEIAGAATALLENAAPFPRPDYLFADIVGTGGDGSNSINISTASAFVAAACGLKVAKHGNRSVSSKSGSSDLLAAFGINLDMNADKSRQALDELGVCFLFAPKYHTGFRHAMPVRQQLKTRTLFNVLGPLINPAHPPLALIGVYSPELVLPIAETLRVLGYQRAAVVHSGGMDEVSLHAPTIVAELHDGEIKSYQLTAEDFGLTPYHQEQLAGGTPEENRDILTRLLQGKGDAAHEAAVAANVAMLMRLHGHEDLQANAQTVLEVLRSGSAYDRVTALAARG
UniProt P08192: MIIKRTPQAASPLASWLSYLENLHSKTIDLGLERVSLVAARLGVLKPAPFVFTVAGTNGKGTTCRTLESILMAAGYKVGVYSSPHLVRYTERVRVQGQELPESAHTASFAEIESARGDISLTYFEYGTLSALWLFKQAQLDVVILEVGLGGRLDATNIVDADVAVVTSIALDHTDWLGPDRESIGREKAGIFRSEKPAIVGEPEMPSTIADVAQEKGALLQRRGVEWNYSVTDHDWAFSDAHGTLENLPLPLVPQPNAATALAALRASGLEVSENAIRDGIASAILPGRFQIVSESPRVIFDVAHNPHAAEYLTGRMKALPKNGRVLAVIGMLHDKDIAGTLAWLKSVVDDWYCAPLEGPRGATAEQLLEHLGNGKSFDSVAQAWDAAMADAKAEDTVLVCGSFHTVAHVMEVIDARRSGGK
UniProt P06987: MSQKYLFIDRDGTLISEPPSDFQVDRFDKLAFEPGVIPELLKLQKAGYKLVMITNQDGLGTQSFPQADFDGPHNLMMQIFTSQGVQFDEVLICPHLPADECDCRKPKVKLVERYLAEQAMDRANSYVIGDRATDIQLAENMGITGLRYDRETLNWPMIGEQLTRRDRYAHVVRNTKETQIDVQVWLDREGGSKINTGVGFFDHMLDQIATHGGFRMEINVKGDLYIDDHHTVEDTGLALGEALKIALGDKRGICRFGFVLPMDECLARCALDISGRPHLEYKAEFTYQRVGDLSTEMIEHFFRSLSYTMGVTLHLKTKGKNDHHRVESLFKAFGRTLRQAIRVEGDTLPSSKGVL
UniProt P08194: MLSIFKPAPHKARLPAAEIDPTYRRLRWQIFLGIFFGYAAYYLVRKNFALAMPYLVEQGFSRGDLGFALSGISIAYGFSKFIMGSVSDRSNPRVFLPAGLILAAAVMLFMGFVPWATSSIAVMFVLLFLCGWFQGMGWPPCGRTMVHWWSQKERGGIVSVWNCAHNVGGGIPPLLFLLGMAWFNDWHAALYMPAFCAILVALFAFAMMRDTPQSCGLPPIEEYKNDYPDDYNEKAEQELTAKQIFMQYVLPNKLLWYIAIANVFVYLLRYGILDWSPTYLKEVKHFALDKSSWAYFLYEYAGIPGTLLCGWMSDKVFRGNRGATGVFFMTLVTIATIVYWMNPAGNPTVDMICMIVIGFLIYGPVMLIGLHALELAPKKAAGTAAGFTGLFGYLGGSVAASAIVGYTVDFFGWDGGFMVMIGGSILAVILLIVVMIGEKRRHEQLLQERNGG
UniProt P07021: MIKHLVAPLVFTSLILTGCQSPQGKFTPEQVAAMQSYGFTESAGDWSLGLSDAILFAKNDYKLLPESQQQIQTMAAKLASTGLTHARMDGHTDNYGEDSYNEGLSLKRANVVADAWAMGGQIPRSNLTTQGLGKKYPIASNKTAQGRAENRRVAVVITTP
UniProt A5A607: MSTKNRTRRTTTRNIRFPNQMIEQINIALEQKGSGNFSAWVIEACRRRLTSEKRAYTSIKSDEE
UniProt P09832: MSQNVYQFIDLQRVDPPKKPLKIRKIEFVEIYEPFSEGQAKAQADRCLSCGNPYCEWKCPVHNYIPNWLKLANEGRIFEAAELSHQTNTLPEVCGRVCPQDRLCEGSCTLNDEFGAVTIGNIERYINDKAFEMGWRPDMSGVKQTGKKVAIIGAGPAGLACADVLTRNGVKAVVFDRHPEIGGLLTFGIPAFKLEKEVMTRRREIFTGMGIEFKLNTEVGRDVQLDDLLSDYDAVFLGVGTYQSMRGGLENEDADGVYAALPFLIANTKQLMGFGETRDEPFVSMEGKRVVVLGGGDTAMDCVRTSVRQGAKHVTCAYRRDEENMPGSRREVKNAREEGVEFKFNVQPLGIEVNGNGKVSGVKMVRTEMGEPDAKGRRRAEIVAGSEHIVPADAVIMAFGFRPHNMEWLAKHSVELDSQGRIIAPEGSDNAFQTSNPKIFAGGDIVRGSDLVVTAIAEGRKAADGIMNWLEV
UniProt P06965: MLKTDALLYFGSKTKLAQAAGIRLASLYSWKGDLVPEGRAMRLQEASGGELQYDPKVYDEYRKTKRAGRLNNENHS
UniProt P06720: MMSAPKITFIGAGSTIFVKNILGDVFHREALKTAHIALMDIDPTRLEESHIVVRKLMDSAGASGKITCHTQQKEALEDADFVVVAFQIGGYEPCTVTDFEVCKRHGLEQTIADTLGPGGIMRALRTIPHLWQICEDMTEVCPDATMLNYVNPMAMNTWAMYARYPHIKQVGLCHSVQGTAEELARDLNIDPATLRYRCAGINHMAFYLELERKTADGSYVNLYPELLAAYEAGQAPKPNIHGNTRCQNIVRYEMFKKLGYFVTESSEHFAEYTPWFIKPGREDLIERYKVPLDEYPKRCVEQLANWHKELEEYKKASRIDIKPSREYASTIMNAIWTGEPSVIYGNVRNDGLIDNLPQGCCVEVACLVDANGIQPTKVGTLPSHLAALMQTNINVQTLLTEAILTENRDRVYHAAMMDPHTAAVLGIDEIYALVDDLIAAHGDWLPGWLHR

Compound: CC1(C)S[C@@H]2[C@H](NC(=O)[C@H](N)c3ccccc3)C(=O)N2[C@H]1C(=O)O [ampicillin]
Test: log2 fold change of tryptic peptide abundance, ligand vs vehicle (limited proteolysis) (log2 ratio); higher = more trypsin-susceptible (destabilized)
Settings: ligand concentration: 10 uM; sample: E. coli crude lysate

Which log2 fold change does the source give for “UniProt P09394 (peptide sequence: DDNLVVLHDHYLDR, peptide start residue: 71)” here?
Its log2 fold change is 0.624.

“UniProt P09152 (peptide sequence: KGECDLIPGKTAPHIMVVER, peptide start residue: 872)” was tested. Which log2 fold change did it give?
Its log2 fold change is 0.31.

“UniProt P05052 (peptide sequence: LRDEGTSFTEILRDTR, peptide start residue: 173)” was tested. Which log2 fold change did it give?
Its log2 fold change is -1.01.

With “UniProt P07024 (peptide sequence: DSIEAGDISYK, peptide start residue: 411)” as the target, how does the log2 fold change read?
The log2 fold change was 0.629.

For “UniProt P08506 (peptide sequence: ALIHDVPEEYAIHK, peptide start residue: 193)”, which log2 fold change is on record?
The log2 fold change was 0.986.

“UniProt P06610 (peptide sequence: IEVNGEGRHPLYQK, peptide start residue: 97)” was tested. Which log2 fold change did it give?
Its log2 fold change is 0.0683.

How did the log2 fold change turn out when “UniProt P06612 (peptide sequence: QLAEKADHIYLATDLDR, peptide start residue: 98)” was run?
The log2 fold change was 1.08.

How did the log2 fold change turn out when “UniProt P06968 (peptide sequence: GEGGFGHSGRQ, peptide start residue: 142)” was run?
The log2 fold change was 0.0775.

Which log2 fold change does the source give for “UniProt P08142 (peptide sequence: AEWHQLVADLQR, peptide start residue: 344)” here?
The log2 fold change was 0.105.

Which log2 fold change does the source give for “UniProt P09127 (peptide sequence: SADASLADMNDPSLITVRR, peptide start residue: 164)” here?
The log2 fold change was -0.426.

With “UniProt P00561 (peptide sequence: HVLHGISLLGQCPDSINAALICR, peptide start residue: 103)” as the target, how does the log2 fold change read?
Its log2 fold change is 0.0798.

“UniProt P04949 (peptide sequence: SRLDEIDR, peptide start residue: 118)” was tested. Which log2 fold change did it give?
Its log2 fold change is 0.481.

With “UniProt P00893 (peptide sequence: AFWLAASGRPGPVVVDLPK, peptide start residue: 145)” as the target, how does the log2 fold change read?
The log2 fold change was 0.156.

“UniProt P00350 (peptide sequence: EKTEEVIAENPGKK, peptide start residue: 37)” was tested. Which log2 fold change did it give?
The log2 fold change was 0.256.

With “UniProt P00904 (peptide sequence: LHGHEDLQANAQTVLEVLR, peptide start residue: 498)” as the target, how does the log2 fold change read?
The log2 fold change was -0.53.

With “UniProt P08192 (peptide sequence: AEDTVLVCGSFHTVAHVMEVIDAR, peptide start residue: 394)” as the target, how does the log2 fold change read?
Its log2 fold change is 0.498.

Which log2 fold change does the source give for “UniProt P06987 (peptide sequence: AEFTYQR, peptide start residue: 283)” here?
Its log2 fold change is -0.112.

With “UniProt P08194 (peptide sequence: AEQELTAK, peptide start residue: 235)” as the target, how does the log2 fold change read?
Its log2 fold change is 0.147.

For “UniProt P03018 (peptide sequence: IGQLMGTSQGGMWVGTFHGLAHR, peptide start residue: 74)”, which log2 fold change is on record?
Its log2 fold change is 0.246.

With “UniProt P09831 (peptide sequence: ILHSAETDDDLK, peptide start residue: 406)” as the target, how does the log2 fold change read?
Its log2 fold change is -0.224.

With “UniProt P08201 (peptide sequence: IPVTLVEDNA, peptide start residue: 838)” as the target, how does the log2 fold change read?
The log2 fold change was -0.918.

How did the log2 fold change turn out when “UniProt P09099 (peptide sequence: LAQIAANPEK, peptide start residue: 431)” was run?
Its log2 fold change is -0.287.

With “UniProt P07021 (peptide sequence: SNLTTQGLGK, peptide start residue: 125)” as the target, how does the log2 fold change read?
Its log2 fold change is 0.287.

How did the log2 fold change turn out when “UniProt A5A607 (peptide sequence: AYTSIKSDEE, peptide start residue: 55)” was run?
Its log2 fold change is -0.184.

How did the log2 fold change turn out when “UniProt P09832 (peptide sequence: AFEMGWRPDMSGVK, peptide start residue: 130)” was run?
The log2 fold change was 0.27.

For “UniProt P06965 (peptide sequence: LASLYSWK, peptide start residue: 24)”, which log2 fold change is on record?
The log2 fold change was -0.434.

How did the log2 fold change turn out when “UniProt P0A6B4 (peptide sequence: LGVRPEQAEAFYHR, peptide start residue: 130)” was run?
Its log2 fold change is -0.321.

With “UniProt P05804 (peptide sequence: WTGMNFGEKPQQGGK, peptide start residue: 588)” as the target, how does the log2 fold change read?
The log2 fold change was 0.258.

Which log2 fold change does the source give for “UniProt P08394 (peptide sequence: SVWHCSLGVAPLVR, peptide start residue: 809)” here?
Its log2 fold change is 0.241.

“UniProt P06720 (peptide sequence: YKVPLDEYPK, peptide start residue: 288)” was tested. Which log2 fold change did it give?
Its log2 fold change is -0.218.

Which log2 fold change does the source give for “UniProt P08839 (peptide sequence: FIEEKTIC, peptide start residue: 568)” here?
Its log2 fold change is -1.08.

For “UniProt P09154 (peptide sequence: LKEDELK, peptide start residue: 97)”, which log2 fold change is on record?
Its log2 fold change is 0.0781.

Which log2 fold change does the source give for “UniProt P08179 (peptide sequence: LKMHENAAWLDGQR, peptide start residue: 189)” here?
The log2 fold change was 0.205.

With “UniProt P00363 (peptide sequence: NKYMELGPR, peptide start residue: 280)” as the target, how does the log2 fold change read?
Its log2 fold change is -0.231.

How did the log2 fold change turn out when “UniProt P03007 (peptide sequence: VTDSLAVAR, peptide start residue: 127)” was run?
Its log2 fold change is -0.29.
